Earlier results, collected in US20100324152A1, “USE OF 1,2-DECANEDIOL FOR SEBUM REDUCTION AND COSMETIC AND/OR DERMATOLOGICAL FORMULATIONS COMPRISING 1,2-DECANEDIOL” (priority 2006, published 2010).
Some of these results come from one statement about several compounds together. At least one structure is not confirmed: it was looked up by name or label, or the drawing left a doubt.

Test system: P. acnes
Conditions: against P. acnes; cited from earlier work
In the case of CN(C)[C@@H]1C(O)=C(C(N)=O)C(=O)[C@@]2(O)C(O)=C3C(=O)c4c(O)cccc4[C@@](C)(O)[C@H]3C[C@@H]12 [tetracycline], the MIC values is given as less than 1 ppm. For CC[C@H]1OC(=O)[C@H](C)[C@@H](O[C@H]2C[C@@](C)(OC)[C@@H](O)[C@H](C)O2)[C@H](C)[C@@H](O[C@@H]2O[C@H](C)C[C@H](N(C)C)[C@H]2O)[C@](C)(O)C[C@@H](C)C(=O)[C@H](C)[C@@H](O)[C@]1(C)O [erythromycin], the MIC values is given as less than 1 ppm. For CCC[C@@H]1C[C@@H](C(=O)N[C@@H]([C@H]2O[C@H](SC)[C@H](O)[C@@H](O)[C@H]2O)[C@H](C)Cl)N(C)C1 [clindamycin], the MIC values is listed as less than 1 ppm.
